Results on 1 molecule are retold here after doi:10.1101/2021.08.10.455789.

Results are given in words; binding and its absence hold for the method and conditions named. Binding seen in cells or lysates may run through a third protein. These calls come from enrichment with a bait or labelling near it, and not all partners need be listed.

Experiment [1] deals with T1, HMG-3::3xHA (C. elegans) (UniProt O01683).
T1 sequence: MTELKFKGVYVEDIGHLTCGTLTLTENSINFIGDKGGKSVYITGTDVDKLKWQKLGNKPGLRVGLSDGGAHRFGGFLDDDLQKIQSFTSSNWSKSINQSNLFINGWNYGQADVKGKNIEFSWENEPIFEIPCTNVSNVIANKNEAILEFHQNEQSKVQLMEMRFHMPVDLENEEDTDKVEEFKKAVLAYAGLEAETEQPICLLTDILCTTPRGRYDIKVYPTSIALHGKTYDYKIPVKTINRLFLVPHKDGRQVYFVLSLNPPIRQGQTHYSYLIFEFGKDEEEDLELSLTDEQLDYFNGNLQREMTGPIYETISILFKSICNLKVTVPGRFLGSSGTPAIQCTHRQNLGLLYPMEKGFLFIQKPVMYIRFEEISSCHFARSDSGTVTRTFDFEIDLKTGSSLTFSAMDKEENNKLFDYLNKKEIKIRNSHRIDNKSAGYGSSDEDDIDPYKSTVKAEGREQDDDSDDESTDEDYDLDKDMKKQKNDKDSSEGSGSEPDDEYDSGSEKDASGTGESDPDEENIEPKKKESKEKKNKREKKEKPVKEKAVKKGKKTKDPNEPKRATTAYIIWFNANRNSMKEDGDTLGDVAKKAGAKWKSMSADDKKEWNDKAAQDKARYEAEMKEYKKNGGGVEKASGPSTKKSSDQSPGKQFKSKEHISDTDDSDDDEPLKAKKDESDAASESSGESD
As to the kind of experiment: affinity purification with mass spectrometry.

In experiment [2] the target is T2, HMG-4::3xHA (C. elegans) (UniProt P41848).
T2 sequence: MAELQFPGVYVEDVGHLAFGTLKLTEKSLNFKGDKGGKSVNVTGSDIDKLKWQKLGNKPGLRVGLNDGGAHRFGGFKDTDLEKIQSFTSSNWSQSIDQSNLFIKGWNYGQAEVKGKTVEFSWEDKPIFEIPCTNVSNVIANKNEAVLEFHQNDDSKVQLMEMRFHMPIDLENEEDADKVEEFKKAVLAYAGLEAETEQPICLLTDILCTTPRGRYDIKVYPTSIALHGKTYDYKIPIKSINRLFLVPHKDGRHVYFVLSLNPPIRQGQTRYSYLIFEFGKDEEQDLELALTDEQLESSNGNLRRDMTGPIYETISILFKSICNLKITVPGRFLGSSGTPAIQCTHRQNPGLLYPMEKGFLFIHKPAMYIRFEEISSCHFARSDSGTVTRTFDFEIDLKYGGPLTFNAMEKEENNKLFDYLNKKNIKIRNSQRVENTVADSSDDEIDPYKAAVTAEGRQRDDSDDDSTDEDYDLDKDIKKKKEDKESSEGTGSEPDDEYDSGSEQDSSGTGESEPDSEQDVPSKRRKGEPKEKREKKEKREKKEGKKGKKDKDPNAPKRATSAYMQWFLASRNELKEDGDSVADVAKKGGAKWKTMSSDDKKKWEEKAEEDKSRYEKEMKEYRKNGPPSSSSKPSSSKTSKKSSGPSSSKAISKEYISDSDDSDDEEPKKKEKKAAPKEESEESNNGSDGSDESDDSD
As to the kind of experiment: affinity purification with mass spectrometry.

B1: SPT-16 (protein, UniProt Q9N5R9 1-1030)
chain: MSGKRAVLNKDLFFQRAERLYEHWEKGADGLDSIKSLAFVYGETDNPYTKTSALFTWLFGHEIADTVLLLLKDHIYILGSNRKVEFFGSVTGDNQSSGKVPTVSTLLRDKTDKDAGNFEKLIDHIKSAGGDVGNFVKEKFSSEFVSSWNKALEEGGVNKNDVTLAFTHLFAVKDDKEMDLIRKSAQATTASWTAARARYVEIIDQEKRVRHSVLSNEFAAFMKDSKVQQALAKYEADTCYDPIVMSGGNYSFKWNHESSESHLHSQFGTIITSFGARLSEYCTNLTRTMLIFPSSELETAYEAILAAELAVIAALKPGAKLSDVYKIGIDTLTEKSPKLAETLNKKELGFATGIEFRESRLAISAKCDEVVKAGMVFIVYIGVDSIPNKNKGEKGKPAAIAISDTILVKEEGDNEILTEKAKSRLKSNVIKFKEEQENREAEKDNDQKKMLGRGQRSVVLTDQTRNKTTNEELRKERQKELGVQLNELAKARLSKQGGGTDEKKSKKSNVSYKTEERFPQDADVQKMLIFVDRKYDSVVVPIFGIPVPFHISMIKNCSQSVEGDFTYLRINFATPGSQVGKDSGQFPHPLAHYMKELTFRASNIKDHHSDSTAPSHNLSTAFRLIKEMQKRFKTEEAEEREKEGAVKQDKLILSQNKLNPKLKDLLIRPNIIQKRITGSLEAHTNGFRYTSLRGDRIDVLYNNIKHAFFQPCDNEMIILLHFHLKNPVLWGKKKYKDVQFYTEVGEITTDLGKYHHMQDRDDMQSEQQEREMRRRLNAAFNSFCEKVSRLTNDQFEFDSPFAGLGFFGVPYRSATTLKPTASCLVNLTEWPTFIVTLSEVELVHFERVSLQLKNFDMVFIFKDYKIKPQMVAQIPMSSIDKIKEWLHTCDIWYSEGIQSLNWAKVMKTITDDLEAFFEEGGWSFLNVESDNEEAMDDSDDSDAYDPEEEDASAGSGSESDEDESEGEETESDDDDEGSLDSDESEGKDWSDLEEEAANADKRREVEEPSRDRDRKRPHSSKSGPSHKRRK
Consider B1, for which the binding entry in experiment [1] and in experiment [2] was “binds” in each case.
